Data from PubChem BioAssay AID1487 (National Center for Advancing Translational Sciences (NCATS), 2009).
In all, about 200,000 compounds went through this assay and about 25 (0.01%) were called active. Inconclusive means that the source gave no clear call. Such entries were picked first, then a sample of the others. Calls follow the shape of the dose curve; as a rule, active = well fitted inhibition curve with a large enough effect in the signal ratio, with a control signal flat (not every such curve was filed as active); inconclusive = small, poorly fitted or top-dose-only effect, or effect the other way, or a change in a side signal; inactive = flat fitted curve, though single readings scatter; the % refers to the signal ratio. Where the call is inconclusive, the potency comes from a doubtful curve fit.

test: qHTS Assay for Modulators of Lamin A Splicing; details: HeLa LMNA splicing GFP/RFP minigene ratio, 48 h; ratio change, negative = inhibition: at 46.1 µM (top of the series) unless noted
How it was run: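 S3 HeLa cells stably expressing lamin A-EGFP splicing minigene plus DsRed2, 600 cells/well, 48 h compound exposure at 37C. Laser-scanning cytometry; analysed as GFP (500-530 nm)/RFP (575-640 nm) total intensity ratio; 0.5% DMSO vehicle.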
% is scaled to controls: 0 for no effect and ±100 for the full control effect; potency is read from the fitted curve at half-maximal effect.

**Q.** For `COc1ccc(C(O)c2ccccc2OP(=O)(N(C)C)N(C)C)cc1` (stereo not drawn), which “ratio change, negative = inhibition” value is on record?
**A.** inactive: 4.32%

**Q.** With `COc1ccc(NP(=O)(Oc2ccc(Cl)cc2)Oc2ccc(Cl)cc2)cc1OC` as the compound, how does the Potency read?
**A.** inconclusive: 35.5 µM [falling, single point]

**Q.** Which “ratio change, negative = inhibition” value does the source give for `C[C@@H]1O[C@H](C[N+](C)(C)C)C[C@H]1O` here?
**A.** inactive: -11%

**Q.** Which ratio change, negative = inhibition does the source give for `O=c1n(Cl)c(=O)n(Cl)c(=O)n1Cl` here?
**A.** inconclusive: -12.2%

**Q.** With `O=[N+]([O-])c1ccc(N2CCCCCC2)c2ncccc12` as the compound, how does the ratio change, negative = inhibition read?
**A.** inconclusive: 33.3% [at 46 µM]

**Q.** Which ratio change, negative = inhibition does the source give for `Cc1cc(N(CCCl)CCCl)ccc1/C=N/NC(=O)c1ccco1` here?
**A.** inconclusive: -37.2%

**Q.** Which ratio change, negative = inhibition does the source give for `NC(=O)c1cc(N2CC2)c([N+](=O)[O-])cc1[N+](=O)[O-]` here?
**A.** inconclusive: -33%

**Q.** Which ratio change, negative = inhibition does the source give for `CCCC(C)C1(CC)C(=O)NC(=O)NC1=O` (stereo not drawn) here?
**A.** inconclusive: 7.42%

**Q.** Which ratio change, negative = inhibition does the source give for `O=Cc1ccco1` here?
**A.** inconclusive: 8.81%

**Q.** Which “ratio change, negative = inhibition” value does the source give for `CCOC(=O)C1CCN(/C=C2/C(=O)NC(=S)N(c3ccccc3F)C2=O)CC1` here?
**A.** inactive: 14% [at 46 µM]

**Q.** With `c1ccc(Cn2ccnc2)cc1` as the compound, how does the ratio change, negative = inhibition read?
**A.** inconclusive: -5.9%

**Q.** Which ratio change, negative = inhibition does the source give for `COc1ccc(C)cc1NC(=O)c1cccn(Cc2ccccc2Cl)c1=O` here?
**A.** inconclusive: 2.12% [at 46 µM]

**Q.** With `CCC(=NC(C)c1ccccc1)c1c(O)n(C)c(=O)n(C)c1=O` (stereo not drawn) as the compound, how does the Potency read?
**A.** inconclusive: 7.08 µM [fluorescent, partial curve]

**Q.** Which Potency does the source give for `N#CC(C#N)=Cc1ccc(O)c(O)c1` here?
**A.** inconclusive: 25.1 µM [inhibitor, partial curve, poor fit]

**Q.** With `C[N+]1(C)C2CC[C@H]1CC(OC(=O)[C@@H](CO)c1ccccc1)C2` (stereo partly drawn) as the compound, how does the ratio change, negative = inhibition read?
**A.** inconclusive: -12.8%

**Q.** Which Potency does the source give for `CCNc1nc(Cl)nc(NCC)n1` here?
**A.** inconclusive: 0.0022 µM [inhibitor, full curve, poor fit]

**Q.** With `O=C1/C(=C\c2ccc3c(c2)OCO3)N2CCC1CC2` as the compound, how does the ratio change, negative = inhibition read?
**A.** inconclusive: 1.02%

**Q.** For `Cc1cc(C(C)(C)C)cc(C)c1CC1=NCCN1`, which ratio change, negative = inhibition is on record?
**A.** inconclusive: -19.4%

**Q.** With `CCn1c(C)cc(/C=C2\C(=O)NC(=O)N(c3ccccc3C)C2=O)c1C` as the compound, how does the “ratio change, negative = inhibition” value read?
**A.** inactive: -5.65% [at 46 µM]

**Q.** With `O=[N+]([O-])C(Br)(CO)CO` as the compound, how does the Potency read?
**A.** inconclusive: 35.5 µM [cytotoxic, single point]

**Q.** Which Potency does the source give for `Cc1sc2ccccc2c1CC1=NCCN1` here?
**A.** inconclusive: 11.2 µM [cytotoxic, single point]

**Q.** With `COc1cc(/C=C/c2nc3ccccc3c(=O)n2-c2ccc(Br)c(C)c2)ccc1O` as the compound, how does the ratio change, negative = inhibition read?
**A.** inconclusive: -31.2% [at 46 µM]

**Q.** For `COc1cc(/C=N/Nc2ccc(S(N)(=O)=O)cc2)cc(OC)c1OC`, which Potency is on record?
**A.** inconclusive: 6.31 µM [falling, partial curve]

**Q.** Which “ratio change, negative = inhibition” value does the source give for `CC(C)CN(CC(C)C)c1ccc(C=C2C(=O)NC(=S)NC2=O)cc1[N+](=O)[O-]` here?
**A.** inactive: 12.3%

**Q.** With `O=C(CC[N+](=O)[O-])OCC1OC(O)C(OC(=O)CC[N+](=O)[O-])[C@@H](OC(=O)CC[N+](=O)[O-])C1OC(=O)CC[N+](=O)[O-]` (stereo partly drawn) as the compound, how does the ratio change, negative = inhibition read?
**A.** inconclusive: 18.6%

**Q.** For `COc1ccccc1-n1c(/C=C/c2ccccc2)nc2ccccc2c1=O`, which Potency is on record?
**A.** inconclusive: 14.1 µM [inhibitor, partial curve, poor fit]

**Q.** Which Potency does the source give for `CC[n+]1c(/C=C/N(C)c2ccccc2)sc2ccc(Cl)cc21` here?
**A.** inconclusive: 7.08 µM [activator, partial curve, poor fit]

**Q.** Which “ratio change, negative = inhibition” value does the source give for `COc1ccc(C)cc1NC(=O)CN1CCN(CC(=O)Nc2ccccc2F)CC1` here?
**A.** inactive: -21% [at 46 µM]

**Q.** With `COc1ccc(CNCC(=O)N2CCC3(CC2)OCCO3)cc1` as the compound, how does the “ratio change, negative = inhibition” value read?
**A.** inactive: 2.06%

**Q.** With `CCc1ccc(OCC(=O)N2CCN(CCc3ccccn3)CC2)cc1` as the compound, how does the ratio change, negative = inhibition read?
**A.** inconclusive: 17.2% [at 46 µM]

**Q.** For `CN1CCN(C(=O)O[C@H]2c3nccnc3C(=O)N2c2ccc(Cl)cn2)CC1`, which ratio change, negative = inhibition is on record?
**A.** inconclusive: -26.4%

**Q.** Which ratio change, negative = inhibition does the source give for `CCC(=O)c1ccc(OC(=O)N(C)c2ccccc2)cc1` here?
**A.** inconclusive: -16.9% [at 9.22 µM]

**Q.** With `CCC(=NCc1cc(OC)cc(OC)c1)c1c(O)n(C)c(=O)n(C)c1=O` as the compound, how does the Potency read?
**A.** inconclusive: 2.51 µM [falling, single point]

**Q.** For `O=c1[nH]c(=O)n(Cc2ccccc2)c(O)c1C=NCCN1CCNCC1`, which “ratio change, negative = inhibition” value is on record?
**A.** inactive: 4.94%

**Q.** Which “ratio change, negative = inhibition” value does the source give for `CC(C)n1c(=O)c(C=Nc2ccc(F)cc2)c(O)n(Cc2ccco2)c1=O` here?
**A.** inactive: 9.61%

**Q.** For `COc1ccc2c(c1O)-c1c(OC)c(OC)cc3c1[C@H](C2)N(C)CC3`, which ratio change, negative = inhibition is on record?
**A.** inconclusive: -29.5%

**Q.** For `O=C1OC(c2ccc(O)c(S(=O)(=O)O)c2)(c2ccc(O)c(S(=O)(=O)O)c2)c2c(Br)c(Br)c(Br)c(Br)c21`, which ratio change, negative = inhibition is on record?
**A.** inconclusive: -11.1%

**Q.** Which ratio change, negative = inhibition does the source give for `Cc1ncc(CN2CCCC(C(=O)c3cccc(OC(C)C)c3)C2)s1` (stereo not drawn) here?
**A.** inconclusive: 35.2% [at 46 µM]

**Q.** For `CCOc1ccc(Br)c(C2(O)CC(C)N(C)CC2C)c1` (stereo not drawn), which ratio change, negative = inhibition is on record?
**A.** inconclusive: 12.9%

**Q.** Which Potency does the source give for `Cc1cccc(NC(=O)c2cccc(NS(=O)(=O)c3ccc(Cl)cc3)c2)c1` here?
**A.** inconclusive: 17.8 µM [falling, partial curve]

**Q.** With `Cc1cc(OCc2ccc([N+](=O)[O-])cc2)c2c3c(c(=O)oc2c1)CCCC3` as the compound, how does the “ratio change, negative = inhibition” value read?
**A.** inactive: 1.41%

**Q.** Which ratio change, negative = inhibition does the source give for `CC(N)Cc1ccc(O)cc1` (stereo not drawn) here?
**A.** inconclusive: -9.74%

**Q.** With `CC(C)N1C(=O)CCC1C(=O)N1CCC2(CC1)OCCO2` (stereo not drawn) as the compound, how does the ratio change, negative = inhibition read?
**A.** inconclusive: -6.56%

**Q.** Which ratio change, negative = inhibition does the source give for `CCCN1CCC[C@@H](c2cccc(C#N)c2)C1` here?
**A.** inconclusive: 16.3% [at 46 µM]

**Q.** Which ratio change, negative = inhibition does the source give for `CC1(C)OC(c2ccccc2)=C/C(=C/C=C2C(=O)NC(=O)NC2=O)O1` here?
**A.** inconclusive: 15.1% [at 46 µM]

**Q.** Which ratio change, negative = inhibition does the source give for `CC(NC(C)(C)C)C(=O)c1cccc(Cl)c1` (stereo not drawn) here?
**A.** inconclusive: -12.3%

**Q.** Which ratio change, negative = inhibition does the source give for `Cn1c(=O)n(C)c2cc(CNCCc3ccccc3)ccc21` here?
**A.** inconclusive: 30.6% [at 46 µM]

**Q.** Which ratio change, negative = inhibition does the source give for `CCn1nc(-c2ccccc2)nc2c(=O)n(C)c(=O)nc1-2` here?
**A.** inconclusive: 419%

**Q.** With `CCCCN1C(=O)/C(=C/C=C/c2ccco2)C(=O)NC1=S` as the compound, how does the “ratio change, negative = inhibition” value read?
**A.** inactive: -3.92%

**Q.** With `CCOC(=O)c1c(C)n(C(C)C)c2ccc(OC(=O)c3ccc(N4C(=O)CCC4=O)cc3)cc12` as the compound, how does the “ratio change, negative = inhibition” value read?
**A.** inactive: -16%

**Q.** With `O=C(NC(=O)c1c(F)cccc1F)Nc1ccc(Cl)cc1` as the compound, how does the “ratio change, negative = inhibition” value read?
**A.** inactive: -11.9%

**Q.** Which Potency does the source give for `Cc1ccccc1CN1CCNCC1` here?
**A.** inconclusive: 2.82 µM [activator, partial curve, poor fit]

**Q.** With `C[N+]12CCC(CC1)C(=C(c1ccccc1)c1ccccc1)C2` as the compound, how does the ratio change, negative = inhibition read?
**A.** inconclusive: -1.77%
